From PMC10313047, “During heat stress in Myxococcus xanthus, the CdbS PilZ domain protein, in concert with two PilZ-DnaK chaperones, perturbs chromosome organization and accelerates cell death” (PLOS Genetics, 2023) come the findings set out here.

The target in the assay is CdbS-FLAG (Myxococcus xanthus). Put plainly: affinity purification with mass spectrometry; in vivo pull-down from M. xanthus lysate with anti-FLAG M2 magnetic beads, HNN buffer (50mM HEPES pH 7.2, 150mM NaCl, 5mM EDTA, 0.5% NP40), 90min at 4°C; label-free quantitative MS, enrichment against GFP-FLAG (log2 ratio ≥3; P ≤0.005), four biological replicates.

These are yes or no findings as the source states them, for the method shown. Binding seen in cells or lysates may run through a third protein. Here binding means that the protein was enriched with, or labelled near, the bait; the list need not be complete.

B1: DnaB helicase (protein, UniProt Q1D285 1-456)
chain: MENVHEFREGRKVHEDLAAERAVLGAVLADNTLIAAVGEVVHPEDFSSPAHAQIFEAMLKLDGQSRQVDHLTLAEELKVLGHLVSVGGPAYLMRLDQVVPIASNAVQYAQIVKDQAIRRRLAQAGREIQDLASQETGELEVLLDEAERKVFLLAEKKREGDLRPVSELMEHTLDLLDKMKAAATGITGLSTGYIDLDNQLTGLHAGELIILAARPGIGKTSFAMNIAVHAALKENKAVGIFSLEMPADQLLMRLLASTARVDMKKLRGGRLTPHDEEKFQEMAGALYNAPIYIDDSGGLSPFDLRAKARRVKQRDPRLSLIVIDYLQLMHQKGKVESRQLEVAEISRALKQLAKELEVPIIALSQLSRKVEDRKDGKPLLSDLRESGSIEQDADVVMFIHRETSDEAGPDGQPAQQSNTVIPVELIIAKQRNGPIGSIDLVFLAEYTRFESRSRSE
Regarding B1, the binding result is on record as “binds”.

B2: GrpS (protein, UniProt P95333 1-255)
chain: MTVIEVEASGPSTPVEAEASASPADTTSPPSDAEATPSEDVAALRQEVESLKAQLEFSQAKGRETMERLREAHERAKEAQERTVRHAADLENYRKRAQKEKEEVQRFGSEKLLKDLLPVMDNLDRAIDAAAKSPDLDSFEKGVAMTRKSFEDALGRHGVKGFSAKGQVFDPRVHEAIQQVETADVPAGHVAYEVVRGFYLNERLVRPAMVVVARAPAEPVAAAEPPAVAEPATATTDTEAPAAPAQSENSSGGSQ
As to B2, the binding result is “binds”.
